Data taken from patent US12274725B2, “Zika virus strains for treatment of glioma” (priority 2017, dated 2025).
For at least one compound, name, drawing or mass did not settle the structure.

System: GSCs (387, 3565, 4121)
Experiment: Cell viability (Cell-Titer Glo) of GSCs
Type: cell-based, human
Conditions: three GSC models, MOI of 5, TMZ 250 μM, one week

SMILES: Cn1nnc2c(C(N)=O)ncn2c1=O [TMZ, Temozolomide]
- anti-GSC activity by cell viability: limited effect against GSCs
